# The supplement of paper PMC6411743
# Sequences of proteins named here, by UniProt entry; tags and fusion partners are left off. A change or cut given only in a name is not applied to a line headed by its entry.
# UniProt O15228: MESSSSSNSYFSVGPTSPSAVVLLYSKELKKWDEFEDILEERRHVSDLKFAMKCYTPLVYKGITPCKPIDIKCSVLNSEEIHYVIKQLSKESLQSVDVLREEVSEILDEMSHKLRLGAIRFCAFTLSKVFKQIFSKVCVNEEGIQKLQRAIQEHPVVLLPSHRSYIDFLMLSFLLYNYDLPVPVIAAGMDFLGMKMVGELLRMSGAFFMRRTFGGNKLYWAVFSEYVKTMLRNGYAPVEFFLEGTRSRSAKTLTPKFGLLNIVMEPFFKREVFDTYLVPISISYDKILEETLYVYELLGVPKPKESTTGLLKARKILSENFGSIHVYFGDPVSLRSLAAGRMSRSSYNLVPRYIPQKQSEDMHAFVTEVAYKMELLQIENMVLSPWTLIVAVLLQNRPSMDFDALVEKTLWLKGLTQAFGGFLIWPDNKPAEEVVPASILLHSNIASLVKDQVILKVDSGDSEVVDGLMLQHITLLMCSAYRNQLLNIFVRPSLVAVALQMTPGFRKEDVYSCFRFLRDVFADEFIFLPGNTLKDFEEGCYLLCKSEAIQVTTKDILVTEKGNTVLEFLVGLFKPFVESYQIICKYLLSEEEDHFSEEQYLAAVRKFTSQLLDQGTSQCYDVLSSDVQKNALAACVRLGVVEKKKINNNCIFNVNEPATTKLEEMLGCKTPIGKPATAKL
# UniProt O14735: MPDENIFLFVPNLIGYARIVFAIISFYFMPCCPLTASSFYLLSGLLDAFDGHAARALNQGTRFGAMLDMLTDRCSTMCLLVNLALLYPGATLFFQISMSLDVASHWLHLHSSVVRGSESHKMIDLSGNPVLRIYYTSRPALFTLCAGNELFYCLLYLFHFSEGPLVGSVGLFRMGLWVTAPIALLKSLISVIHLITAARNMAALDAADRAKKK
# UniProt O00165, whole entry: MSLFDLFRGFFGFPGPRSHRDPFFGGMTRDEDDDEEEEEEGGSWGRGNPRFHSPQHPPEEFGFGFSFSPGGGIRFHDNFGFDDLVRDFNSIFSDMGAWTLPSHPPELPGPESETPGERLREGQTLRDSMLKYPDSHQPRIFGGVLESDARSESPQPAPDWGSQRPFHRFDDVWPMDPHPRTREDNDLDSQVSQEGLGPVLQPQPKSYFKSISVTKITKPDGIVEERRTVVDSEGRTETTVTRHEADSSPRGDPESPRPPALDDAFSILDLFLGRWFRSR
# UniProt O15269: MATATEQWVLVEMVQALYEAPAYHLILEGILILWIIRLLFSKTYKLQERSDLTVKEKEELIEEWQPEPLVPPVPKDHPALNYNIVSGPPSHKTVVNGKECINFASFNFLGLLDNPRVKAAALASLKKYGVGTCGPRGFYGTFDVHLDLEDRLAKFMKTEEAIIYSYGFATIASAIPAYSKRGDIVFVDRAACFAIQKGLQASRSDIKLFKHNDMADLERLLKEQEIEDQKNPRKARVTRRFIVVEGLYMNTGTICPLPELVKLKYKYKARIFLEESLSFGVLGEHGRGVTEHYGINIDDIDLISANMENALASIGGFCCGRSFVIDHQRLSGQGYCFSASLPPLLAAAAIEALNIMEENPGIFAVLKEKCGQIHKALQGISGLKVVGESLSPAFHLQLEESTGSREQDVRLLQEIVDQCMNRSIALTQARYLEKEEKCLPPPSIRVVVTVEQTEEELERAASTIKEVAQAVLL
# UniProt Q08117: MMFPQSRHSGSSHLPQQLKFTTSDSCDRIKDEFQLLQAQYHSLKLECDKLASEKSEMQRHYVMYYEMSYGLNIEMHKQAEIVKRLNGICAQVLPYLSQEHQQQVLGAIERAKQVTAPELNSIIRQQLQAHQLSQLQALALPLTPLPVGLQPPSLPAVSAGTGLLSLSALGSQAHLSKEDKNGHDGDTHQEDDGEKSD
# UniProt O43488: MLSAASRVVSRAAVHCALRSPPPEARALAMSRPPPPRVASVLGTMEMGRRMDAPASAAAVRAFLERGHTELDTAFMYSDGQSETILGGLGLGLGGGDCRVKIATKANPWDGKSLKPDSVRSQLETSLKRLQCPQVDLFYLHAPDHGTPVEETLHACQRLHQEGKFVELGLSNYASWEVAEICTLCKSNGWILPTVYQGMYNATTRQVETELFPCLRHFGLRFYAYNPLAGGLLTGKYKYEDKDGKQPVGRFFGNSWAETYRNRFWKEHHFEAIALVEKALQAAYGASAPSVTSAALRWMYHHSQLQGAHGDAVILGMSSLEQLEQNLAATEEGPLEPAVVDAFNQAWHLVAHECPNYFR
# UniProt Q6UW68: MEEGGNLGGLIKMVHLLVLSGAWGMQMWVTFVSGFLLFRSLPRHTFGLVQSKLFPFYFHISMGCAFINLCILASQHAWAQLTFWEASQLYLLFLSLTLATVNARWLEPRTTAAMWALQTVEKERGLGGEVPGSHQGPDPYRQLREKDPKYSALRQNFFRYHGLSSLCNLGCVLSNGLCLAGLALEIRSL
# UniProt O00483, whole entry: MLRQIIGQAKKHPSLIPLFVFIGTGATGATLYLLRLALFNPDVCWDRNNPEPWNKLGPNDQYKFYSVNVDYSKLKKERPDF
# UniProt L0R6Q1: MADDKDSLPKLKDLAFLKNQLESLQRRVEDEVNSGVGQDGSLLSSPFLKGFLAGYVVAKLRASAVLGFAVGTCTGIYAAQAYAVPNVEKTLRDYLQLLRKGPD
# UniProt O00566: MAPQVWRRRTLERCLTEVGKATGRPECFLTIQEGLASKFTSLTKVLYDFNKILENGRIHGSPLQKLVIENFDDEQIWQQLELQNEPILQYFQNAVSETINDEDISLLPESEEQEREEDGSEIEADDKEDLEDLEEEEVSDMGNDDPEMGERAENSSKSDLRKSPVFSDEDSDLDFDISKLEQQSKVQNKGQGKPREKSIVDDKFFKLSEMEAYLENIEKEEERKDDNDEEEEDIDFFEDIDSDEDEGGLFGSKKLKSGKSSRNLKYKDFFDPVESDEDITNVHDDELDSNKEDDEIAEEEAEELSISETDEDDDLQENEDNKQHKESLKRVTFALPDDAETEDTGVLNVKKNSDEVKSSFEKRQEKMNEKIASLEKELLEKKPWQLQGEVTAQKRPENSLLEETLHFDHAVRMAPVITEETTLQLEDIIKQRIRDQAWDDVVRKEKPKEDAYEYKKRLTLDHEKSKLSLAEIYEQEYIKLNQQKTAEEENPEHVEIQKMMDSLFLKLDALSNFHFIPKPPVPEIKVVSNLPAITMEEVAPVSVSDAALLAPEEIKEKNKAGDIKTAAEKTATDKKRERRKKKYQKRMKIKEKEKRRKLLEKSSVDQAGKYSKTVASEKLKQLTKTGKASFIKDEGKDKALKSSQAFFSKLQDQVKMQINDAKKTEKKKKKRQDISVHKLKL
# UniProt O43747: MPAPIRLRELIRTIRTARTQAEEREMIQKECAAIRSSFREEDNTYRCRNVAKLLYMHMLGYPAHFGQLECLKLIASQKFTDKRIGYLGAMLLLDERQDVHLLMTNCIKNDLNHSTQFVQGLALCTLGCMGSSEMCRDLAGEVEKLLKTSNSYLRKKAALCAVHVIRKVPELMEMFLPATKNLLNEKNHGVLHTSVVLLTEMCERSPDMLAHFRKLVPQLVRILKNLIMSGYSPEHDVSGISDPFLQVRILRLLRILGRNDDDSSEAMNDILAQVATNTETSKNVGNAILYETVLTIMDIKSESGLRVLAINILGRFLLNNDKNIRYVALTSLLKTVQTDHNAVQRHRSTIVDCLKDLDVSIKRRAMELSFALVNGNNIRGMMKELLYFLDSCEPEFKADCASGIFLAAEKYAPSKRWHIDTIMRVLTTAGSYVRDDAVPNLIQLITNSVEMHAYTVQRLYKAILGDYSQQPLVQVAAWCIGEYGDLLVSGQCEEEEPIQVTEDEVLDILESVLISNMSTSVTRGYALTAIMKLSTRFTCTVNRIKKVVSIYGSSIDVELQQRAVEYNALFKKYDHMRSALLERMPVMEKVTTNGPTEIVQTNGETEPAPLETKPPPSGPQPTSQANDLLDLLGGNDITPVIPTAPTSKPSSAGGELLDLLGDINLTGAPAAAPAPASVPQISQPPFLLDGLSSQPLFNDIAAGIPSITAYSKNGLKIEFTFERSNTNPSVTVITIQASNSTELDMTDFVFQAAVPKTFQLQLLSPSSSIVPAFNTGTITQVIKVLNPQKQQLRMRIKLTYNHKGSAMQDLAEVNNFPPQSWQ
# UniProt O00170: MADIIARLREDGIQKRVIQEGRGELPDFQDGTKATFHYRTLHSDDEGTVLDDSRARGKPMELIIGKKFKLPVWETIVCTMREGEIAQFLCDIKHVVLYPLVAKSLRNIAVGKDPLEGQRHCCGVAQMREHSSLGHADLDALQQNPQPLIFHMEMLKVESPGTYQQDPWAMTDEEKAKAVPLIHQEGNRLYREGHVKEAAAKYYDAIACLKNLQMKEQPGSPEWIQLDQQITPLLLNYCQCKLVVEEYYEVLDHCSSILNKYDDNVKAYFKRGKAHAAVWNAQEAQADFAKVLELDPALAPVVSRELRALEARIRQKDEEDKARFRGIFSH
# UniProt O15091: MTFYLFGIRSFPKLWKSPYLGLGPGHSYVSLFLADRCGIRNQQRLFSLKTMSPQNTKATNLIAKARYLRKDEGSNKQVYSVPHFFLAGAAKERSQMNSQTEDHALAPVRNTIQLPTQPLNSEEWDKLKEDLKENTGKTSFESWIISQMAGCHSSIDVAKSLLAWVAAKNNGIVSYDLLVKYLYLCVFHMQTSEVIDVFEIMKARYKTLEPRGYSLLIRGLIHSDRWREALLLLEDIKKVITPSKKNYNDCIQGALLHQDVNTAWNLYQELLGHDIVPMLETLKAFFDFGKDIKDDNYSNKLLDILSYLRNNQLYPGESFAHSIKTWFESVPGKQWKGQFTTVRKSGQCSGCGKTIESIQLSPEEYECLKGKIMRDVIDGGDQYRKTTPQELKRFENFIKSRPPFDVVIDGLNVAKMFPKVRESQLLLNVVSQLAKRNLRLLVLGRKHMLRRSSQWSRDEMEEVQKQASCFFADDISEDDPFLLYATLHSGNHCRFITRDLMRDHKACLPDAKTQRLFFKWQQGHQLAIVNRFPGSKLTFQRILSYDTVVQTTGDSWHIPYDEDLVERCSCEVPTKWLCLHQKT
# UniProt Q14CW9: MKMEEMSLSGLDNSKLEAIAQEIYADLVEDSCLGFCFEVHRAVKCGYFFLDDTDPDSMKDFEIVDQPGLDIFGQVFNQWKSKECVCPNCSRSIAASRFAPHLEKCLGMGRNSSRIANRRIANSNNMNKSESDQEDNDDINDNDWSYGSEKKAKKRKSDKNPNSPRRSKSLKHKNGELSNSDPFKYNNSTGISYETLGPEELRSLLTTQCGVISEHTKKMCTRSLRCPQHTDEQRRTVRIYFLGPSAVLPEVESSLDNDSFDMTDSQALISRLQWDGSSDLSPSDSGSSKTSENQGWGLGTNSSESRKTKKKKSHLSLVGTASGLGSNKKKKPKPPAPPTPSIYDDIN
# UniProt O43164: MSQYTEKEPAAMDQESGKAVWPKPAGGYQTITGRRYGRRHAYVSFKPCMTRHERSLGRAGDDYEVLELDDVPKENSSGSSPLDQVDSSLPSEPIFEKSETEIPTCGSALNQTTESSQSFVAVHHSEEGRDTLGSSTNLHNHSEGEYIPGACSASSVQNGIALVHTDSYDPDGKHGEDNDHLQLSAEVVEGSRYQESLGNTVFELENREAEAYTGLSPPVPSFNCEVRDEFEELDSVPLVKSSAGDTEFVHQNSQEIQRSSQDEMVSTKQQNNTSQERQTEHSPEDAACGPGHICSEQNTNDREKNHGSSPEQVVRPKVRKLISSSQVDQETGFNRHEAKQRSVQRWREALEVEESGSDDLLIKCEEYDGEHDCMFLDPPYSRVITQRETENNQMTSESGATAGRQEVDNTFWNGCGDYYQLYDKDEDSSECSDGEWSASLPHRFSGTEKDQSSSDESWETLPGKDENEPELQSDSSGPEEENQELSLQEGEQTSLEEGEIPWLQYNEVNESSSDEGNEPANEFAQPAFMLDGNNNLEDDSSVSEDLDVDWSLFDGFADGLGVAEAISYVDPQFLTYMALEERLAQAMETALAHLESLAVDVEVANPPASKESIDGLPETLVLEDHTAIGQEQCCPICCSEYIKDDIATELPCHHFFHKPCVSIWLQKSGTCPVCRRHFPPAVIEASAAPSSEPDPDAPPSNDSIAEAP
# UniProt O43513: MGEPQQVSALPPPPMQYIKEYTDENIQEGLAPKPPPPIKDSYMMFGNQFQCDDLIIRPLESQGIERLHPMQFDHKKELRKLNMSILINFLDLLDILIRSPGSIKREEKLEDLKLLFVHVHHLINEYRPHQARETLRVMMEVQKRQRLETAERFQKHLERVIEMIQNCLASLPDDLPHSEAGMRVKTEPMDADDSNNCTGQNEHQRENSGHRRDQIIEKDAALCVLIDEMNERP
# UniProt O43822: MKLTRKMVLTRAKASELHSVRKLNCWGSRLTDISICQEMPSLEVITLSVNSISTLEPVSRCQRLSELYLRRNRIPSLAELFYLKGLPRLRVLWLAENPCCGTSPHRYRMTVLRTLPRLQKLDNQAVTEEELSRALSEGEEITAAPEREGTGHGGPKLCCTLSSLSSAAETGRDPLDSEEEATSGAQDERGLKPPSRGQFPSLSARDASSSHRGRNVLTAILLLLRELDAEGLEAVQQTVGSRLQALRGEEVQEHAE
# ± gives the standard deviation of the averaged measurements. Only a part is listed here, and it is no random draw. Most values lie at the level of the controls, where differences are scatter.
# Compound: Nc1ncnc2c1ncn2[C@@H]1O[C@H](COP(=O)(O)OP(=O)(O)NP(=O)(O)O)[C@@H](O)[C@H]1O [adenylyl imidodiphosphate]
# Experiment: NP40-soluble protein abundance relative to vehicle (solubility fold change) (ratio); higher = more soluble protein in presence of AMP-PNP
# Outline: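 Across three independent experiments, values are fold changes against the detergent-processed vehicle for each replicate, based on vsn-normalised intensities. The samples were Jurkat crude lysate treated with eight concentrations (0.1 to 10 mM) for 10 min at room temperature and then 3 min at 37 °C. Lysate was solubilised with 0.8% NP40 and benzonase, ultracentrifuged, and the supernatant analysed by TMT-labelled LC-MS/MS.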
Target,NP40-soluble protein abundance (concentration: 0.1mM),NP40-soluble protein abundance (concentration: 0.5mM)
UniProt O14733 and related entries,1.06 ± 0.044,1.06 ± 0.023
NDC80 (UniProt O14777),0.987 ± 0.01,0.984 ± 0.012
YKT6 (UniProt O15498),0.972 ± 0.05,1.01 ± 0.014
UniProt O00560 and related entries,0.988 ± 0.042,0.983 ± 0.044
K7EP59 and related entries (UniProt Q15831),1.02 ± 0.032,1.0283 ± 0.00083
PRPF3 (UniProt O43395),1.04 ± 0.02,1.02 ± 0.023
PDCD5 (UniProt O14737),0.981 ± 0.043,1.01 ± 0.053
UniProt O15169 and related entries,1.024 ± 0.0021,1.06 ± 0.035
XPOT (UniProt O43592),1.02 ± 0.021,0.99 ± 0.031
UniProt O00499-2|O00499-4|O00499-6|O00499-7|O00499-9,0.997 ± 0.0075,0.992 ± 0.033
NCK2 (UniProt O43639),1.02 ± 0.03,0.977 ± 0.0078
TOR1B (UniProt O14657),0.959 ± 0.074,0.984 ± 0.075
GNPAT (UniProt O15228),1.02 ± 0.039,0.969 ± 0.07
M0R3D4 and related entries (UniProt Q9UI14),0.983 ± 0.03,1.02 ± 0.034
TRIM38 (UniProt O00635),1.006 ± 0.0046,1.03 ± 0.036
PSMD9 (UniProt O00233),0.999 ± 0.016,0.999 ± 0.029
K7EQ37 and related entries (UniProt Q70J99),1.02 ± 0.037,1.01 ± 0.045
CDIPT (UniProt O14735),1.03 ± 0.018,0.984 ± 0.031
PHGDH (UniProt O43175),0.831 ± 0.17,1 ± 0.028
UniProt O00165 and related entries,1.01 ± 0.022,0.984 ± 0.042
NDUFA2 (UniProt O43678),0.998 ± 0.056,0.993 ± 0.059
SGTA (UniProt O43765),1.01 ± 0.088,1.16 ± 0.23
UniProt O14686 and related entries,1.04 ± 0.043,0.984 ± 0.064
K7EQS2 and related entries (UniProt Q96C34),0.991 ± 0.027,0.989 ± 0.0098
SPTLC1 (UniProt O15269),1 ± 0.029,0.9813 ± 0.005

Target,NP40-soluble protein abundance (concentration: 0.1mM),NP40-soluble protein abundance (concentration: 0.5mM)
SUPT5H (UniProt O00267),1.05 ± 0.064,0.997 ± 0.045
STRN (UniProt O43815),1.01 ± 0.038,0.986 ± 0.06
K7ELE3 and related entries (UniProt Q08117),0.997 ± 0.024,0.969 ± 0.034
IGF2BP3 (UniProt O00425),0.995 ± 0.016,0.998 ± 0.036
UniProt O43488 and related entries,1.03 ± 0.075,1.03 ± 0.022
K7EJB9 and related entries (UniProt P27797),0.975 ± 0.026,0.994 ± 0.064
AP3B1 (UniProt O00203),1.02 ± 0.02,1.03 ± 0.027
UniProt O00463 and related entries,0.971 ± 0.022,0.938 ± 0.013
SLC9A3R1 (UniProt O14745),0.979 ± 0.023,0.985 ± 0.04
TXNL1 (UniProt O43396),0.996 ± 0.027,0.973 ± 0.058
UniProt O43760 and related entries,0.979 ± 0.025,0.98 ± 0.02
UniProt O43865,0.986 ± 0.024,1.01 ± 0.042
MAFG (UniProt O15525),0.974 ± 0.043,0.978 ± 0.087
K7ES11 and related entries (UniProt Q9C0C9),0.971 ± 0.019,0.996 ± 0.023
K7ELQ9 and related entries (UniProt Q6UW68),0.988 ± 0.015,0.9901 ± 0.0062
STXBP3 (UniProt O00186),0.987 ± 0.038,1.01 ± 0.04
M0QYM7 and related entries (UniProt P04350),1.01 ± 0.04,1.02 ± 0.028
ANKRD28 (UniProt O15084),1.03 ± 0.014,0.984 ± 0.041
M0QY01 and related entries (UniProt Q9UBC2),0.999 ± 0.02,0.995 ± 0.048
M0QZR4 (UniProt Q92888),1.012 ± 0.0059,1 ± 0.026
O14925 and related entries (UniProt Q5SRD1+O14925),1.001 ± 0.0041,1 ± 0.012
SLC16A3 (UniProt O15427),0.997 ± 0.035,0.99275 ± 0.00018
MRPS12 (UniProt O15235),1.02 ± 0.043,0.998 ± 0.055
UniProt O43617 and related entries,1.01 ± 0.056,0.948 ± 0.12
PAPSS1 (UniProt O43252),0.993 ± 0.036,1.01 ± 0.054

# Record cards (already shown):
# AP3B1 (UniProt O00203) in the list: NP40-soluble protein abundance (concentration: 0.1mM): 1.02 ± 0.02; NP40-soluble protein abundance (concentration: 0.5mM): 1.03 ± 0.027
# K7ELE3 and related entries (UniProt Q08117) in the list: NP40-soluble protein abundance (concentration: 0.1mM): 0.997 ± 0.024; NP40-soluble protein abundance (concentration: 0.5mM): 0.969 ± 0.034
# SLC9A3R1 (UniProt O14745) in the list: NP40-soluble protein abundance (concentration: 0.1mM): 0.979 ± 0.023; NP40-soluble protein abundance (concentration: 0.5mM): 0.985 ± 0.04
# SUPT5H (UniProt O00267) in the list: NP40-soluble protein abundance (concentration: 0.1mM): 1.05 ± 0.064; NP40-soluble protein abundance (concentration: 0.5mM): 0.997 ± 0.045

# Carrying on.

Target,NP40-soluble protein abundance (concentration: 0.1mM),NP40-soluble protein abundance (concentration: 0.5mM)
TRAFD1 (UniProt O14545),1.004 ± 0.0092,0.964 ± 0.034
K7ERI7 and related entries (UniProt P35268),1.01 ± 0.02,1.02 ± 0.017
K7ENF0 and related entries (UniProt O43776),0.981 ± 0.049,0.972 ± 0.037
BACH1 (UniProt O14867),0.9883 ± 0.005,0.982 ± 0.035
M0R0H0 and related entries (UniProt P55899),1 ± 0.042,0.986 ± 0.028
UniProt O15173 and related entries,0.9821 ± 0.0078,0.994 ± 0.048
NUDT21 (UniProt O43809),1.02 ± 0.042,1.047 ± 0.01
UniProt O00182 and related entries,0.998 ± 0.047,0.987 ± 0.061
EXOC5 (UniProt O00471),0.996 ± 0.024,0.991 ± 0.014
UniProt O14818 and related entries,0.971 ± 0.011,0.997 ± 0.013
NDUFA4 (UniProt O00483),1.02 ± 0.076,0.981 ± 0.035
M0QYS1 and related entries (UniProt P40429),1.04 ± 0.037,1.01 ± 0.012
UniProt O43566 and related entries,1.01 ± 0.048,1.02 ± 0.042
IPO8 (UniProt O15397),0.99 ± 0.035,0.97 ± 0.03
VWA5A (UniProt O00534),0.979 ± 0.014,0.992 ± 0.023
SLC35A4 (UniProt L0R6Q1),0.979 ± 0.038,1.06 ± 0.09
UniProt O15042-2|O15042,1.05 ± 0.051,1.08 ± 0.039
MPHOSPH10 (UniProt O00566),0.986 ± 0.048,1.02 ± 0.083
UniProt O43747 and related entries,0.99 ± 0.034,1 ± 0.092
AIP (UniProt O00170),0.98111 ± 0.0003,0.993 ± 0.018
PIK3R2 (UniProt O00459),0.975 ± 0.042,0.971 ± 0.048
KPNA3 (UniProt O00505),1.04 ± 0.021,1.02 ± 0.015
UniProt O43524 and related entries,1.02 ± 0.035,0.9991 ± 0.0026
M0R208 and related entries (UniProt Q16740),0.992 ± 0.03,1.01 ± 0.059
HNRNPR (UniProt O43390),1.04 ± 0.068,1.03 ± 0.094

Target,NP40-soluble protein abundance (concentration: 0.1mM),NP40-soluble protein abundance (concentration: 0.5mM)
UniProt O43813 and related entries,1.01 ± 0.023,0.984 ± 0.041
UniProt O43829,1.01 ± 0.042,1.03 ± 0.036
UniProt O15091,0.984 ± 0.014,0.964 ± 0.039
M0R2A0 and related entries (UniProt Q5UCC4),1.02 ± 0.024,0.978 ± 0.04
K7EKG9 and related entries (UniProt Q14CW9),1.02 ± 0.029,1.02 ± 0.019
UniProt O43164 and related entries,1 ± 0.028,0.999 ± 0.024
MED7 (UniProt O43513),1 ± 0.03,0.995 ± 0.018
PLRG1 (UniProt O43660),0.993 ± 0.0041,1.03 ± 0.034
M0R0P7 and related entries (UniProt Q02543),1.028 ± 0.0081,1.01 ± 0.045
RFXANK (UniProt O14593),0.983 ± 0.012,1.002 ± 0.0079
K7EMM8 and related entries (UniProt Q49A26),0.992 ± 0.023,1.02 ± 0.028
SCAMP3 (UniProt O14828),1.01 ± 0.018,1.03 ± 0.056
ARPC5 (UniProt O15511),1.04 ± 0.081,1.15 ± 0.21
SETD1A (UniProt O15047),0.983 ± 0.033,0.993 ± 0.053
UniProt O14646 and related entries,0.945 ± 0.033,0.988 ± 0.058
TXNDC9 (UniProt O14530),0.982 ± 0.056,0.995 ± 0.059
XPO1 (UniProt O14980),0.985 ± 0.067,0.974 ± 0.071
ZBTB24 (UniProt O43167),0.995 ± 0.017,1.015 ± 0.0043
M0QXA7 and related entries (UniProt O95785),0.999 ± 0.03,1.03 ± 0.028
UniProt O43822 and related entries,0.983 ± 0.028,1.007 ± 0.0082
TAX1BP3 (UniProt O14907),1.01 ± 0.014,1.02 ± 0.058
TOR1A (UniProt O14656),1.04 ± 0.023,1.05 ± 0.045
